In publication PMC12409219 (Diabetes, Obesity & Metabolism, 2025):

Test: general procedure: Fmoc solid-phase peptide synthesis; Rink Amide; DIPC/HOBt
Details: whole synthesis

## HISHS-2001
  final purity (method not given): above 98%
